# According to the supplement of paper PMC3334620:
# Over roughly 33,000 sequences, “E-score (-0.5 to 0.5)” has its median near -0.0034; the highest 2% begin near 0.25. This is one part of the list.
# Molecular target: T1, Yap3 (UniProt P38749)
# T1 sequence: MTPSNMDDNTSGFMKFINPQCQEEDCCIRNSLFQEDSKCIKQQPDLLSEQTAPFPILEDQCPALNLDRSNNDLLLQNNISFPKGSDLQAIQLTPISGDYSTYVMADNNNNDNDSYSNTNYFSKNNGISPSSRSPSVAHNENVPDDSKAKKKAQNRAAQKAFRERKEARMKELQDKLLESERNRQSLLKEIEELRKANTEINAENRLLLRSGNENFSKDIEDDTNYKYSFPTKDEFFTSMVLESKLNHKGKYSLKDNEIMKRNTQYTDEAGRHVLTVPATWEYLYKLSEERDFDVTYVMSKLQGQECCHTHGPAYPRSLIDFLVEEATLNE
# Assay: PBM E-score (8-mer binding enrichment) (E-score (-0.5 to 0.5)); higher = stronger / more preferred TF binding
# Conditions: protein concentration: 100 nM; construct: GST-full length
# Outline: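 Universal all-10-mer Agilent arrays, double-stranded by primer extension on fresh or once-stripped slides, were probed with about 100-200 nM GST-tagged yeast transcription factors made by PURExpress. Fluorescent anti-GST detected bound protein, and masliner normalised the scans. E-scores from the Universal PBM Analysis Suite were given to each ungapped eight-base word pooled with its reverse complement.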
row,Sequence,PBM E-score
1,AATCATTA,0.0925
2,CCAGTTCA,-0.0846
3,GAGGATAC,-0.0386
4,CAAGACTC,-0.0232
5,CATCGCGA,0.112
6,CCGGTCAA,0.0995
7,CGGCACCC,-0.168
8,CGACGTGA,0.0646
9,ATCTCAAG,0.123
10,AGGCTTGA,0.122
11,ATAAGGCG,0.0352
12,CGGTCAAA,0.124
13,GGAGGAAC,-0.242
14,AGCTCAAA,0.0486
15,CCCAAAGC,-0.0848
16,TTACGAAA,0.202
17,AACTATTG,0.152
18,AAGCCATT,-0.0174
19,AGTAACCC,-0.00628
20,AGTAGGCA,0.0302
21,ACGACTCG,-0.13
22,TCACGACA,0.0543
23,CCTCTCCG,-0.312
24,AGTGACAA,0.107
25,CGGTAATA,0.202

row,Sequence,PBM E-score
1,CTCGGGTC,-0.0553
2,AGGAGGCC,-0.19
3,GAATATAA,0.195
4,ATAGCTTC,-0.058
5,GATACTAC,0.0824
6,AATGCCCT,-0.154
7,AGCTCTCG,-0.212
8,ATCTGACA,0.0405
9,CCATGTAG,-0.014
10,GGTGCCGA,-0.0673
11,CTAGAAAC,0.0635
12,ACGGTCGG,-0.0385
13,TGATCGCA,-0.0549
14,AAGAAAGA,0.0743
15,GAAACCTC,-0.208
16,AGGAGTGC,-0.0507
17,AGATGAGG,-0.0678
18,CGATATCG,0.208
19,CCCTCAAC,-0.239
20,CAGGTAAC,-0.17
21,CGTATCTA,0.0965
22,ACAGAAAC,0.285
23,AATAATTA,0.316
24,ATGGGCGG,-0.0363
25,AAGTATGG,0.0246

# Some of the entries so far, as tab-separated lines:
row	Sequence	PBM E-score
20	CAGGTAAC	-0.17
21	CGTATCTA	0.0965

# Remaining list, next part

row,Sequence,PBM E-score
1,ATTAGTAC,0.136
2,ATCCTGTG,-0.0412
3,CCAGTCGG,-0.149
4,GATAGACA,0.0506
5,CCCAATAG,-0.031
6,AGCGTTTC,-0.00718
7,GCGTCCGA,-0.114
8,GGTAGGTA,-0.112
9,CTAAGATC,0.0564
10,AGGGGGCC,-0.356
11,GCAGATCC,0.0102
12,CCACATTC,0.00371
13,TGACCTAA,0.072
14,CTTTCCGC,-0.0162
15,AGGTGACT,-0.0767
16,CATTAGCA,0.0386
17,GGCGGATA,-0.121
18,AAACATTC,-0.0161
19,AGCCGGAA,0.103
20,AGATTAGG,0.0272
21,GCCAACCA,-0.209
22,CGTGCGTA,-0.0168
23,ATTCCAAC,0.11
24,GCCCGGCC,-0.38
25,ACGTAGCA,0.0068

# Reformatted bar-delimited: entries from further up
row | Sequence | PBM E-score
17 | AACTATTG | 0.152
18 | AAGCCATT | -0.0174

# Next entries follow:

row,Sequence,PBM E-score
1,CGCCTTCC,-0.216
2,AAGGTTAA,0.0137
3,CGACGACC,-0.14
4,AACGGAAT,0.262
5,ACAGCCGA,-0.142
6,AGCCTTTG,-0.17
7,GAATGTAA,0.221
8,CGCGCTAA,0.2
9,CGAGCACA,0.0403
10,ACGATCCA,-0.102
11,GCCATGTA,0.102
12,TAATAACA,0.189
13,AACTTTAT,0.163
14,CAGTAATC,0.0876
15,AGACAAAG,-0.0105
16,ATTTTACG,0.309
17,CGAATGAG,0.0546
18,AGACGAGA,0.0448
19,ATAGATCC,-0.0273
20,ACTGACAT,0.0703
21,GGCTAAAA,-0.127
22,CCTCTAAC,-0.00843
23,CCACGTAA,0.0186
24,GCAATGCC,0.0775
25,CCTAAGAA,0.0334

# Looked up above:
# CGCGCTAA – PBM E-score: 0.2
# CGAATGAG – PBM E-score: 0.0546

# Later entries:

row,Sequence,PBM E-score
1,GTCCCCCA,-0.198
2,ACCGGATC,-0.0261
3,GGACAAGA,-0.00257
4,ATATTCAA,0.238
5,AAGGTTGG,0.0215
6,GATTGAGA,0.156
7,GTATTGGA,0.00161
8,AAGCTACG,-0.078
9,CTTAGTCA,0.373
10,CCACTCCG,-0.0481
11,GATAGTCC,-0.0286
12,AACGATAC,0.0446
13,GCCGAAAC,-0.075
14,GCATCGCA,-0.361
15,AATTAGAT,0.245
16,AGTGGCCA,-0.0423
17,CATGCATG,0.0144
18,AACTCATT,0.0581
19,TAGTTTAA,0.177
20,GACCGGGC,-0.19
21,CGAGACTC,-0.0387
22,GAGGTCGC,-0.205
23,CTAAGTAG,0.16
24,AGAATACC,0.125
25,AGTACCGG,-0.179

row,Sequence,PBM E-score
1,GCGTAGCA,-0.02
2,TAACCCTA,-0.0956
3,ACCGCCGT,-0.0221
4,CAACATGG,0.14
5,ATGGCACG,-0.081
6,ACCCTGCA,0.122
7,ATAGATTC,-0.0357
8,AACGATTA,0.0595
9,ATCGGCGA,-0.127
10,ATACGTAT,0.296
11,CTTGGGCA,0.0848
12,GCTCCCCA,-0.353
13,AAAAGTGT,-0.016
14,GGGACGTA,-0.0984
15,GCCCATAA,-0.13
16,CGCTTACA,0.062
17,CTAACCTA,0.0526
18,GAATCGAC,0.062
19,GAGACTGA,-0.0536
20,AATTACCA,0.256
21,ATTATGTC,0.198
22,AAGCTTCC,-0.146
23,GGGCAGGA,-0.0798
24,GCTCACCA,-0.113
25,TGTAGCAA,-0.0221

row,Sequence,PBM E-score
1,CTGTAGCC,-0.092
2,AAGTTTCC,-0.0578
3,TTGCGAAA,0.114
4,GGAGTGCA,0.213
5,AAGCAAGC,-0.0393
6,GTAAATAC,0.0284
7,AGTGAGCG,0.057
8,AATGTGCA,0.124
9,GAAAAGTA,0.206
10,AGCATGGG,-0.211
11,GAATGAGA,0.102
12,AAAGAATC,0.0505
13,GATCTGCC,0.0312
14,ATACGATC,0.139
15,CCGTTCCC,-0.0607
16,GAGCAGCA,-0.0592
17,ACAGCAAT,0.141
18,CTAGAGGA,-0.169
19,GTAGTCAC,-0.175
20,AGAGCTAG,-0.128
21,GCCTGCAA,-0.0828
22,AGTGTAGC,-0.0538
